PubChem BioAssay AID1347075 (National Center for Advancing Translational Sciences (NCATS), 2019)
The whole screen tested about 400,000 compounds, of which about 5,500 (1.4%) were called active. This list was built around the results that the source calls inconclusive (neither active nor inactive); the mix of calls is not that of the screen. Calls come from the whole dose curve; as a rule, active = well fitted cell-killing curve with a large enough effect; inconclusive = small, poorly fitted or top-dose-only effect, or effect the other way; inactive = flat fitted curve, though single readings scatter. Potencies beside an inconclusive call are fits to weak or partial responses and may not hold up.

assay: qHTS assay for MDR1-selective chemotherapeutics: Primary screen using the parental adenocarcinoma cell KB-3-1; conditions: KB-3-1 viability, CellTiter-Glo ATP luminescence, 72 h; activity change, negative = cytotoxic: at 46.1 µM (top of the series); note: nearly all actives have a fitted effect of over 60% in size
Method in brief: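 Using CellTiter-Glo luminescence, growth of non-resistant KB-3-1 adenocarcinoma cells is assessed 72 h after pin-tool compound addition at 37 °C. Normalized responses across the concentration series yield fitted curves.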
% is set by controls: 0 for no effect and ±100 for the full control effect; potency is the fitted concentration of half-maximal effect.

SMILES	activity change, negative = cytotoxic	Potency
C/C(=N\Nc1ccc(C(F)(F)F)cn1)c1ccc(S(=O)(=O)NCc2ccco2)cc1	inactive: -2.34%	
CC1(C)Cc2c(c(N3CCOCC3)nc3sc(-c4ccc(C(=O)O)o4)c(N)c23)CO1	inconclusive: 38.8%	
Cc1cc2nc(-c3ccc(=O)[nH]c3)n(Cc3ccccc3)c2cc1C	inactive: -0.385%	
[Cl][In]([Cl])[Cl]		inconclusive: 14.6 µM [rising, partial curve, poor fit]
COc1ccc(Cn2c(C3CC3)nc3ccc(NC(=O)c4cccnc4)cc3c2=O)cc1		active: 5.8 µM
COc1cc2c(cc1OC)C(C)N(C(=O)c1c(-c3ccccc3)noc1C)CC2 (stereo not given)		inconclusive: 29.1 µM [cytotoxic, single point]
COc1ccc(-c2nc3ccccc3nc2-c2ccccc2)cc1OC	inactive: -16.4%	
Nc1cc2c3ccccc3ccc2c2ccccc12		inconclusive: 18.4 µM [cytotoxic, single point]
CCOC(=O)c1cnc2ccc(OCC)cc2c1NCc1ccccc1		inconclusive: 23.1 µM [cytotoxic, partial curve, poor fit]
CCN=c1scc(-c2ccco2)n1/N=C/c1ccc(O)cc1	inactive: 8.76%	
O=C(NCC1CC1)C1Cc2c(-c3ccc(Cl)cc3)ccnc2O1 (stereo not given)	inactive: -18.7%	
C[C@@H]1CN([C@@H](C)CO)S(=O)(=O)c2ccc(Br)cc2O[C@H]1CN(C)C(=O)Nc1ccc(C(F)(F)F)cc1		inconclusive: 3.26 µM [rising, partial curve, poor fit]
COc1ccc(CN2CCN(C(c3ccc(F)cc3)c3ccc(F)cc3)CC2)c(OC)c1OC		inconclusive: 29.1 µM [cytotoxic, single point]
COc1ccc(S(=O)(=O)Nc2ccc(Cc3ccncc3)cc2)cc1OC		inconclusive: 5.8 µM [cytotoxic, full curve]
CCN(CC)CCCNc1nc2ccccc2c2nc(-c3ccncc3)nn12		active: 18.4 µM
O=C(NC(=O)c1ccccc1Cl)C(=O)Nc1ccc(Cl)cc1		inconclusive: 32.6 µM [rising, single point]
Cn1nnnc1SCC(=O)NC(=O)Cc1ccccc1		inconclusive: 29.1 µM [cytotoxic, single point]
CCC(=NNC(=O)c1ccc2c(c1)nc(C)n2CC)c1cc(F)ccc1O		inconclusive: 11.6 µM [cytotoxic, partial curve, poor fit]
COc1ccc(N2CCN(C(=O)Nc3cn(CC(C)C)c(=O)c4ccccc34)CC2)cc1	inactive: 4.08%	
O=C(N/N=C/c1ccc(OC2CSC2)cc1)c1ccccc1		inconclusive: 16.4 µM [cytotoxic, single point]
CN(C)c1ccc(/C=C2\CCc3ccccc32)cc1		inconclusive: 2.91 µM [rising, full curve, poor fit]
CCOC(=O)CC1C(=O)NCCN1C(=O)c1ccc(C)cc1 (stereo not given)		inconclusive: 16.4 µM [cytotoxic, single point]
CCOC(=O)C(CC)(CCC(=O)O)c1csc(Nc2ccc(C)cc2)n1 (stereo not given)	inconclusive: 0.469%	
CCOc1ccccc1N1CCN(C(=O)C2c3ccccc3Oc3ccccc32)CC1		active: 13 µM

SMILES	activity change, negative = cytotoxic	Potency
CC(C)(C)OC(=O)N1CCC[C@H]1c1nnc(SCc2ccccc2)o1	inactive: 8.25%	
Cc1nn(C(=O)c2c([N+](=O)[O-])cnn2C)c(C)c1Cl	inactive: 10.9%	
CCOC(=O)c1cc(-c2ccc(/C=C3/C(=O)NC(=O)C(C#N)=C3C)o2)ccc1Cl	inactive: 1.47%	
CN(CC(=O)NCC(=O)Nc1ccc(F)cc1)C1CCS(=O)(=O)C1 (stereo not given)	inactive: 1.25%	
COc1ccc(Cn2c(-c3ccccc3)nc3c(c(=O)c4ccccc4n3C)c2=O)cc1	inactive: -7.24%	
COC(=O)C[C@H]1c2cc(C(F)(F)F)ccc2S(=O)(=O)N1C(C)C	inactive: 18.7%	
C[C@H](CO)N1C[C@H](C)[C@@H](CN(C)S(=O)(=O)c2cn(C)cn2)Oc2c(NC(=O)Nc3ccc(C(F)(F)F)cc3)cccc2C1=O	inactive: -2.41%	
Cc1ccc2oc(C(=O)Nc3c(C(=O)Nc4cccc(Cl)c4)oc4ccccc34)cc(=O)c2c1		inconclusive: 29.1 µM [rising, single point]
COc1cc(C2Nc3ccc4ncccc4c3C3=C2C(=O)CCC3)cc(OC)c1O (stereo not given)		inconclusive: 4.11 µM [cytotoxic, full curve, poor fit]
COc1ccc(N2CCN(C(=O)CSc3nnc(CNc4ccccc4)o3)CC2)cc1		inconclusive: 23.1 µM [cytotoxic, partial curve]
COC(=O)Oc1c(Br)c(=O)oc2ccccc12	inactive: 9.45%	
CN1CCN(S(=O)(=O)c2ccc(C(F)(F)F)cc2)C(c2ccccc2)C1 (stereo not given)		inconclusive: 16.4 µM [cytotoxic, single point]
O=C1[C@@H]2Cc3c([nH]c4ccccc34)C(c3cccc(Br)c3)N2C(=O)CN1C1CCN(Cc2ccccc2)CC1 (stereo not given in full)		inconclusive: 29.1 µM [cytotoxic, single point]
COc1ccc(-c2cc(C(F)(F)F)nc(SCC(=O)N(C)Cc3cn(C)nc3C)n2)cc1OC		inconclusive: 25.9 µM [rising, single point]
Cc1ccc2nc(-c3cccc(Br)c3)cc(C(=O)NCC3CCCO3)c2c1 (stereo not given)	inactive: 6.9%	
O=C(Cc1sc(Nc2ccccc2)nc1-c1ccccc1)NCc1ccccc1		active: 16.4 µM
CCn1c(C)c(C2=CCN(S(=O)(=O)c3ccccc3)CC2)c2ccccc21		inconclusive: 29.1 µM [cytotoxic, single point]
O=C(CSc1nc2ccccc2s1)Nc1ccc(Cl)c(S(=O)(=O)N2CCOCC2)c1		inconclusive: 18.4 µM [cytotoxic, single point]
O=C(NC(=S)Nc1ccc(Oc2ccc(Cl)cc2)cc1)c1ccccc1		inconclusive: 18.4 µM [cytotoxic, single point]
CCCCC(=O)Nc1c2c(nn1-c1ccc(C)cc1)CS(=O)(=O)C2	inactive: -0.0931%	
CCC(/C=C1\Sc2ccc(OC)cc2N1CC)=C\c1sc2ccc(OC)cc2[n+]1CCCS(=O)(=O)[O-]		inconclusive: 20.6 µM [cytotoxic, partial curve, poor fit]
Cc1cccc(-n2ncc3c2CCCC3NC(=O)C2CCOCC2)c1C (stereo not given)		inconclusive: 20.6 µM [cytotoxic, partial curve, poor fit]
CSc1ncnc2c1ncn2CC(=O)C1CCC2C3CCC4=CC(=O)CCC4(C)C3CCC12C (stereo not given)		inconclusive: 18.4 µM [cytotoxic, single point]
Cn1cccc/c1=N\c1cccc[n+]1C	inactive: -31%	

SMILES	activity change, negative = cytotoxic	Potency
CNc1ccc(C(=O)OCC(=O)NCc2ccc3c(c2)OCO3)cc1[N+](=O)[O-]	inactive: 2.29%	
CN1CCN(C(=O)CCCN2C(=O)/C(=C/c3ccc(Cl)cc3)SC2=S)CC1		inconclusive: 3.66 µM [cytotoxic, full curve]
CN(C)c1ccc(CNC(=O)C2(C)Cc3c(-c4cccc(C(F)(F)F)c4)ccnc3O2)cc1 (stereo not given)		inconclusive: 29.1 µM [cytotoxic, single point]
CCOc1ccccc1-c1noc(CSc2nnc(-c3ccccc3)n2-c2ccc(OC)cc2)n1	inactive: -20.2%	
Cc1ccc(OC(=O)N(C)C[C@@H]2OCc3cn(nn3)CCCC(=O)N([C@@H](C)CO)C[C@H]2C)cc1	inactive: 4.88%	
COC(=O)c1c(-c2ccc(C)cc2)csc1NC(=O)Cc1ccc(OC)c(OC)c1		inconclusive: 18.4 µM [cytotoxic, single point]
COc1ccc(/C=C2/C(=O)N(c3nc4ccccc4s3)N=C2CSc2ccc(Cl)cc2)cc1	inactive: 0%	
Cc1ccc(-n2[nH]c(C)c(/C=N/c3ccccn3)c2=O)cc1		inconclusive: 11.6 µM [cytotoxic, partial curve]
COc1ccc(C2CC(c3cccc(F)c3)=NN2c2ccc(S(N)(=O)=O)cc2)cc1 (stereo not given)		inconclusive: 23.1 µM [cytotoxic, single point]
Cc1oc2cc(Br)c(O)c(Br)c2c1C(=O)c1ccccc1		inconclusive: 0.184 µM [rising, full curve]
CCC1S/C(=N/N=C/c2ccco2)N(Cc2ccc(F)cc2)C1=O (stereo not given)	inactive: 0.814%	
Cc1c(C(=O)N/N=C/c2ccccc2)[nH]c2c([N+](=O)[O-])cccc12		inconclusive: 2.59 µM [cytotoxic, full curve]
C[C@H](O)[C@@H]1CN2CCc3c([nH]c4ccc(-c5ccc6c(c5)OCO6)cc34)[C@@H]2C[C@@H]1N(C)C(=O)NC1CCCCC1		active: 0.58 µM
Clc1ccc(C2=Nn3c(nnc3-c3n[nH]c4c3CCC4)SC2)cc1Cl		inconclusive: 29.1 µM [cytotoxic, single point]
Cc1cc(S(=O)(=O)N2CCOCC2)ccc1OCC(=O)Nc1cccc(F)c1		inconclusive: 25.9 µM [cytotoxic, single point]
CSCc1ccc(C(=O)NCC(c2cccs2)N2CCOCC2)cc1 (stereo not given)		inconclusive: 29.1 µM [rising, single point]
CCOC(=O)C1=C(C)NC(=S)N(C=O)C1c1ccccc1 (stereo not given)	inconclusive: 20.5%	
c1ccc(CSC2=NNC(c3ccccn3)S2)cc1 (stereo not given)		inconclusive: 29.1 µM [cytotoxic, single point]
CCCNC(=O)c1ccc2c(c1)N=C(CCC)c1ccccc1S2		active: 0.731 µM
COc1cccc(NC(=O)Cn2nc(N3CCN(c4ccccc4)CC3)ccc2=O)c1	inactive: -5.17%	
COc1cc(CNCCN2CCOCC2)ccc1OCc1ccc(Cl)cc1		inconclusive: 29.1 µM [cytotoxic, single point]
Cc1nccc2[nH]c(=O)c(C(=O)NC3CCCCC3C)cc12 (stereo not given)		inconclusive: 32.6 µM [cytotoxic, single point]

An excerpt from above in order of length of the SMILES, ascending.
SMILES	activity change, negative = cytotoxic	Potency
Cc1nccc2[nH]c(=O)c(C(=O)NC3CCCCC3C)cc12 (stereo not given)		inconclusive: 32.6 µM [cytotoxic, single point]
CCC1S/C(=N/N=C/c2ccco2)N(Cc2ccc(F)cc2)C1=O (stereo not given)	inactive: 0.814%	
COC(=O)c1c(-c2ccc(C)cc2)csc1NC(=O)Cc1ccc(OC)c(OC)c1		inconclusive: 18.4 µM [cytotoxic, single point]
Cc1c(C(=O)N/N=C/c2ccccc2)[nH]c2c([N+](=O)[O-])cccc12		inconclusive: 2.59 µM [cytotoxic, full curve]
